This note sets out measurements from PMC8516933.

Protein sequences, listed by entry. Tags and fused reporters are not part of them.
UniProt O35613: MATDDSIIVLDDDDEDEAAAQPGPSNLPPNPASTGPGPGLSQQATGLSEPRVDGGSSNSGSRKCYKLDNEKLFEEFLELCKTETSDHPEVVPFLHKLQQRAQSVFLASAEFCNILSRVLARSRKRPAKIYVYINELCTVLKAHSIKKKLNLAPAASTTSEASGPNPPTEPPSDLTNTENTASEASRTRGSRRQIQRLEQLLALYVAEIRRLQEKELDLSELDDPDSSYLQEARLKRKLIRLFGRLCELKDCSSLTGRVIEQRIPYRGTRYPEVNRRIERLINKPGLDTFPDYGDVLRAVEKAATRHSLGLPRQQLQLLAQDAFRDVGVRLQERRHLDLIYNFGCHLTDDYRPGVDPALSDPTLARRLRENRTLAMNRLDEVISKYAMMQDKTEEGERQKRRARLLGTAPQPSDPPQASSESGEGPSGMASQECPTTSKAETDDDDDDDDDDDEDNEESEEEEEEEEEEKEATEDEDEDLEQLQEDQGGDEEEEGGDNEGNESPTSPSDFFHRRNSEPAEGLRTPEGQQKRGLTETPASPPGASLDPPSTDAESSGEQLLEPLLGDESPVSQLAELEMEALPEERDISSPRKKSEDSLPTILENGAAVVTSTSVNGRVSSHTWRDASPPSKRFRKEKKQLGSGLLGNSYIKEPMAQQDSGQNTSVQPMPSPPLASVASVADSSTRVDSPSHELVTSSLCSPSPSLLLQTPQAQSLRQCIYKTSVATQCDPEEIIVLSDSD
UniProt P13864: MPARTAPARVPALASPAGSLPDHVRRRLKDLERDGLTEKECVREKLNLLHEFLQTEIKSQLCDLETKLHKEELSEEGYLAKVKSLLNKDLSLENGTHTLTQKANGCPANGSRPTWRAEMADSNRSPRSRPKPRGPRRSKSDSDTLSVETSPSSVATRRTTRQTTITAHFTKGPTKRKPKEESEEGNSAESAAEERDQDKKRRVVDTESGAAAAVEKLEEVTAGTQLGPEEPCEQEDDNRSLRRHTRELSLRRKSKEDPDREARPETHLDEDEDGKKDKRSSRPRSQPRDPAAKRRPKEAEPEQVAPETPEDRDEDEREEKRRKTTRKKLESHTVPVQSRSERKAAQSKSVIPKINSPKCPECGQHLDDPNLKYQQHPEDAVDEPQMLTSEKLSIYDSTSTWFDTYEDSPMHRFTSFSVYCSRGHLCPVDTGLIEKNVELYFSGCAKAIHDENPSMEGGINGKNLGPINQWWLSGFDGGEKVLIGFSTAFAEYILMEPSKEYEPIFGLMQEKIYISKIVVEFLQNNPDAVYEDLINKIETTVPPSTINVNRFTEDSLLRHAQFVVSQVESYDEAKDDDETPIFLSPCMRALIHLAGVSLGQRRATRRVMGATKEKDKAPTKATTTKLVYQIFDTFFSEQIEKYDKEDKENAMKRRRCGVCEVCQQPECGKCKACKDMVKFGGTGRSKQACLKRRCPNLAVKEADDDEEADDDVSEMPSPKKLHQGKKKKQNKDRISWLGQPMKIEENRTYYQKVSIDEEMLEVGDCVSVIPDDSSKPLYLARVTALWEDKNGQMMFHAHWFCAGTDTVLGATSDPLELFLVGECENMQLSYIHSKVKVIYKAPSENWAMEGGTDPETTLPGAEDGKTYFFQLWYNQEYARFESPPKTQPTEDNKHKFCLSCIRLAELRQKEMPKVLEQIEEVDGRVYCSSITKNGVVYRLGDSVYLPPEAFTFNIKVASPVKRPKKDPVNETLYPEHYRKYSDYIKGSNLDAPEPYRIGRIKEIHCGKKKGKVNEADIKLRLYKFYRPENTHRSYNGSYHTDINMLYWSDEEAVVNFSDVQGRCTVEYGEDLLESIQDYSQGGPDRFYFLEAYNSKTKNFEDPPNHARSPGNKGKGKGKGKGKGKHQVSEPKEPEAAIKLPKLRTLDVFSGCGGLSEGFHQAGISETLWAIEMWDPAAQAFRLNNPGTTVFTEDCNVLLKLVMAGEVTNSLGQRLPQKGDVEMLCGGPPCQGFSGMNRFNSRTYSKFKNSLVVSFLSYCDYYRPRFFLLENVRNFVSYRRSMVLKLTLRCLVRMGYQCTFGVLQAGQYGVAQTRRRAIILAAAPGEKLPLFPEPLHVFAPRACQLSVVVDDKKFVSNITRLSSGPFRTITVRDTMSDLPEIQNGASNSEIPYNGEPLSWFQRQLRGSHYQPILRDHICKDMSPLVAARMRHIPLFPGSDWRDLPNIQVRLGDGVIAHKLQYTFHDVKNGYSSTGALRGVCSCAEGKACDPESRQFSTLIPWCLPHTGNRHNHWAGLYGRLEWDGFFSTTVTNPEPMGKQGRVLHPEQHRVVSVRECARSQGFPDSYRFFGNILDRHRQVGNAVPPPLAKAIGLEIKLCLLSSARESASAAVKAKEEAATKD

Holding throughout (assay): affinity purification with mass spectrometry; ChIP-MS (RIME protocol): mouse ES cells fixed with 1% formaldehyde 10 min at 22 °C, nuclei sonicated in LB3 with 20 mM NEM; 3xFLAG bait (Morc3 or Daxx) precipitated with FLAG-M2 antibody on Protein G Dynabeads, 4 h; washes with RIPA buffer (500 mM LiCl); LC-MS/MS, iBAQ; the paper says that associations may be direct, transient or mediated through DNA/RNA fragments

Experiment [1] deals with T1, Morc3-3xFLAG (knock-in, expressed at endogenous levels) (mouse (endogenous in mouse ES cells)) (UniProt F7BJB9).
T1 sequence: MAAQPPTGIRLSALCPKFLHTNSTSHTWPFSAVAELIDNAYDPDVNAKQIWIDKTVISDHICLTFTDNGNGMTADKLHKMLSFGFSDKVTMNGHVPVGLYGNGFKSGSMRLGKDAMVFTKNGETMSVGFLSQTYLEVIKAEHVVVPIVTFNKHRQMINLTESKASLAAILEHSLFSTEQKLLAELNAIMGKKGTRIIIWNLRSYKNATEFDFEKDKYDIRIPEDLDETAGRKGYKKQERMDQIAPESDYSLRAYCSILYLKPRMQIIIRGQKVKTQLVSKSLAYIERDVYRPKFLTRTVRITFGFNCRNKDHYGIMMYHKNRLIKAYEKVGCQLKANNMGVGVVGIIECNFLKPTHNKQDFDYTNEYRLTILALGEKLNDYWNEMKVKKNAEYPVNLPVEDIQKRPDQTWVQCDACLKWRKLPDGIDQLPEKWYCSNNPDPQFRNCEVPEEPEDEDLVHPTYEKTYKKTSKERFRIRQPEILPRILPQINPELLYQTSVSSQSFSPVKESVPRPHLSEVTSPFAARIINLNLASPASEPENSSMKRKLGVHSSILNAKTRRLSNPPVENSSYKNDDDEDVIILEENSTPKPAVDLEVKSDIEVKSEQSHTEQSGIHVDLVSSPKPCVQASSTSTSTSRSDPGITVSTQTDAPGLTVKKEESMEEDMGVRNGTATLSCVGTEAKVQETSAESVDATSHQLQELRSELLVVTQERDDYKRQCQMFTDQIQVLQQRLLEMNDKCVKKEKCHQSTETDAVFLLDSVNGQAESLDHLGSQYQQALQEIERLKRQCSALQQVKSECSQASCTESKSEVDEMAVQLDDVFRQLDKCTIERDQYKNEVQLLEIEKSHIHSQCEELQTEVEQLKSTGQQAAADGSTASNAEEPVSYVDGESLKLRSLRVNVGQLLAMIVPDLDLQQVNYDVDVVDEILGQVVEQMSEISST

For experiment [2], the target named is T2, Morc3 ATP binding mutant (G101A), 3xFLAG tagged (UniProt F7BJB9).
T2 sequence: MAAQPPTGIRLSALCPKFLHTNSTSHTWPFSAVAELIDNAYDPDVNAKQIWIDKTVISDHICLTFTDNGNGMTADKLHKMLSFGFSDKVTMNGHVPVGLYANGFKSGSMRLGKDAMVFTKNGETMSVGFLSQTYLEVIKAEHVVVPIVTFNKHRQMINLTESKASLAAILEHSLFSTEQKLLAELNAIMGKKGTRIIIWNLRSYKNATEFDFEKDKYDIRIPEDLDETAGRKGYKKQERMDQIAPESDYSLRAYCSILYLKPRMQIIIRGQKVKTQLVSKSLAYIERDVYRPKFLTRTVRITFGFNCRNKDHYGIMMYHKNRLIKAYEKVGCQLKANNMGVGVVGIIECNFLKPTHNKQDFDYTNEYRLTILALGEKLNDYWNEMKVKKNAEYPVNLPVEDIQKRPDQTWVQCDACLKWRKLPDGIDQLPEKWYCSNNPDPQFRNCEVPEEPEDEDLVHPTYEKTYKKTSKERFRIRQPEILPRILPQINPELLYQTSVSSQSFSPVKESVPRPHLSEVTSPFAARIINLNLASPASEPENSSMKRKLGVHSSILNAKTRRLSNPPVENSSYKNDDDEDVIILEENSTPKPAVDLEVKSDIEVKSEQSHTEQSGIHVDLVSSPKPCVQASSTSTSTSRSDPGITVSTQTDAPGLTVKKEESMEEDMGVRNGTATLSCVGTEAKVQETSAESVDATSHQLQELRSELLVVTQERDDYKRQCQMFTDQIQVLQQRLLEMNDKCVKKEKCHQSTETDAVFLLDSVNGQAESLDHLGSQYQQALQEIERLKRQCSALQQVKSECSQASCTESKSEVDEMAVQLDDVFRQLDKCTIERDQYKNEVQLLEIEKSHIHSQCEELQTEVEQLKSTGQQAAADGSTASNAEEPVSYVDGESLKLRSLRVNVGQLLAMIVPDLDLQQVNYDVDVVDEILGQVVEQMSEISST

Experiment [3] deals with Daxx wild type, 3xFLAG tagged (rescue construct) (UniProt O35613).
For experiment [4], the target named is T1, Morc3-3xFLAG (knock-in, expressed at endogenous levels) (mouse (endogenous in mouse ES cells)). This is another data set of the same source.

Like-named read-outs stand apart in the source and are kept apart here. No constants are given. Whether binding was seen depends on the method and setting. Binding seen in cells or lysates may run through a third protein. Here binding means that the protein was enriched with, or labelled near, the bait; the list need not be complete. For some assays here: A no says only that the protein was not detected with the bait. Sequences can lack the tags named with a protein.

In the case of “Daxx (endogenous) (from UniProt O35613 1-739)”, the binding entry in experiment [1] was “binds”; in experiment [2] it was “no binding”.

In the case of “Dnmt1 (endogenous) (from UniProt P13864 1-1620)”, in experiment [1], the binding result is “binds”.

B1: Morc3 (endogenous, untagged) (protein, UniProt F7BJB9 1-942)
chain: MAAQPPTGIRLSALCPKFLHTNSTSHTWPFSAVAELIDNAYDPDVNAKQIWIDKTVISDHICLTFTDNGNGMTADKLHKMLSFGFSDKVTMNGHVPVGLYGNGFKSGSMRLGKDAMVFTKNGETMSVGFLSQTYLEVIKAEHVVVPIVTFNKHRQMINLTESKASLAAILEHSLFSTEQKLLAELNAIMGKKGTRIIIWNLRSYKNATEFDFEKDKYDIRIPEDLDETAGRKGYKKQERMDQIAPESDYSLRAYCSILYLKPRMQIIIRGQKVKTQLVSKSLAYIERDVYRPKFLTRTVRITFGFNCRNKDHYGIMMYHKNRLIKAYEKVGCQLKANNMGVGVVGIIECNFLKPTHNKQDFDYTNEYRLTILALGEKLNDYWNEMKVKKNAEYPVNLPVEDIQKRPDQTWVQCDACLKWRKLPDGIDQLPEKWYCSNNPDPQFRNCEVPEEPEDEDLVHPTYEKTYKKTSKERFRIRQPEILPRILPQINPELLYQTSVSSQSFSPVKESVPRPHLSEVTSPFAARIINLNLASPASEPENSSMKRKLGVHSSILNAKTRRLSNPPVENSSYKNDDDEDVIILEENSTPKPAVDLEVKSDIEVKSEQSHTEQSGIHVDLVSSPKPCVQASSTSTSTSRSDPGITVSTQTDAPGLTVKKEESMEEDMGVRNGTATLSCVGTEAKVQETSAESVDATSHQLQELRSELLVVTQERDDYKRQCQMFTDQIQVLQQRLLEMNDKCVKKEKCHQSTETDAVFLLDSVNGQAESLDHLGSQYQQALQEIERLKRQCSALQQVKSECSQASCTESKSEVDEMAVQLDDVFRQLDKCTIERDQYKNEVQLLEIEKSHIHSQCEELQTEVEQLKSTGQQAAADGSTASNAEEPVSYVDGESLKLRSLRVNVGQLLAMIVPDLDLQQVNYDVDVVDEILGQVVEQMSEISST
Regarding B1, the binding result in experiment [3] is recorded as “binds”.

B2: Uhrf1 (endogenous) (protein, UniProt Q8VDF2 1-782)
chain: MWIQVRTMDGKETHTVNSLSRLTKVQELRKKIEEVFHVEPQLQRLFYRGKQMEDGHTLFDYDVRLNDTIQLLVRQSLALPLSTKERDSELSDSDSGYGVGHSESDKSSTHGEGAAEADDKTVWEDTDLGLYKVNEYVDVRDNIFGAWFEAQVVQVQKRALSEDEPCSSSAVKTSEDDIMYHVKYDDYPEHGVDIVKAKNVRARARTVIPWENLEVGQVVMANYNVDYPRKRGFWYDVEICRKRQTRTARELYGNIRLLNDSQLNNCRIMFVDEVLMIELPKERRPLIASPSQPPPALRNTGKSGPSCRFCKDDENKPCRKCACHVCGGREAPEKQLLCDECDMAFHLYCLKPPLTSVPPEPEWYCPSCRTDSSEVVQAGEKLKESKKKAKMASATSSSRRDWGKGMACVGRTTECTIVPANHFGPIPGVPVGTMWRFRVQVSESGVHRPHVAGIHGRSNDGAYSLVLAGGYEDDVDNGNYFTYTGSGGRDLSGNKRTAGQSSDQKLTNNNRALALNCHSPINEKGAEAEDWRQGKPVRVVRNMKGGKHSKYAPAEGNRYDGIYKVVKYWPERGKSGFLVWRYLLRRDDTEPEPWTREGKDRTRQLGLTMQYPEGYLEALANKEKSRKRPAKALEQGPSSSKTGKSKQKSTGPTLSSPRASKKSKLEPYTLSEQQANLIKEDKGNAKLWDDVLTSLQDGPYQIFLSKVKEAFQCICCQELVFRPVTTVCQHNVCKDCLDRSFRAQVFSCPACRFELDHSSPTRVNQPLQTILNQLFPGYGSGR
With B2, in experiment [4], the binding result is “binds”.
